This note sets out measurements from article PMC7819943, “Rice protein-binding microarrays: a tool to detect cis-acting elements near promoter regions in rice”.

Protein sequences, listed by entry. Tags and fused reporters are not part of them.
UniProt Q0JBA9, entry or part of it: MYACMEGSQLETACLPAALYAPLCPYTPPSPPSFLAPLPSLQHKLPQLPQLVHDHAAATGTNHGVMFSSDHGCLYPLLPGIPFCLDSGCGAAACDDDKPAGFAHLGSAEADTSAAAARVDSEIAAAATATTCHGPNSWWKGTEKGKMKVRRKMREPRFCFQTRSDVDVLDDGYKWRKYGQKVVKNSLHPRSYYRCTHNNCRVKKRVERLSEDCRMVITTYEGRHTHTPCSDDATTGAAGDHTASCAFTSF

The other results are listed elsewhere or left out.

This assay concerns the target OsWRKY34 (Oryza sativa, UniProt Q0JBA9 1-250). The assay can be described thus: protein-binding microarray (RPBM); PBS, 2% BSA, 51.3 ng/ul salmon testes DNA, 50 uM zinc acetate, 200 nM TF, 25 C, 1 h; high values mean tight binding. The following applies: protein: recombinant; tags: N-terminal polyhistidine and DsRed monomer fusion (pET32a); label: CyDye5-dUTP incorporated in the synthesized complementary strand; 3' TTTTT single-stranded linker to array surface; dsDNA, one strand shown. The procedure, abridged: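 Binding signal here means per-feature fluorescence intensity in arbitrary units. The values were read on an Axon 4000B scanner after a custom Agilent array, double-stranded by primer extension with Cy5-dUTP, was incubated with 200 nM protein at 25 °C for 1 h in PBS with 2% BSA, salmon testes DNA and 50 µM zinc acetate, then washed. The proteins were transcription factors with an N-terminal polyhistidine tag and DsRed, expressed in E. coli BL21-CodonPlus and purified on Ni–NTA.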
For “GAAGAGGAGGAGGAGGAGGAGGAGGAGGAGGGGATCAATGCGGAGTCACCTAGTGCAG”, the binding signal is 8350 fluorescence intensity (a.u.).

As for “AAGAAAGCTATATACCATCTCTCATGCGAGTAAATAATTACGGAGTCACCTAGTGCAG”, the binding signal is 8340 fluorescence intensity (a.u.).

Take “TATCTTCCTTGTATTTGTTTTTTTTGTTTCTTTTTTCCTTCGGAGTCACCTAGTGCAG”: the binding signal was 8750 fluorescence intensity (a.u.).

Regarding “ACTGCTTTCCAACCACCTTGATGTTTTTCTTGTTGTTCATCGGAGTCACCTAGTGCAG”, the binding signal was 11200 fluorescence intensity (a.u.).

In the case of “CCCATGCATAAAGTAGTATGTATAGTGTGTTTACTTAATTCGGAGTCACCTAGTGCAG”, the binding signal was 12000 fluorescence intensity (a.u.).

As to “ACAAGGGGAAGGGGAAAGGAAAAGTTGACTTTTCAGCTTGCGGAGTCACCTAGTGCAG”, the binding signal was 8420 fluorescence intensity (a.u.).

Take “AGAGATATCTTCCATTGCGAGCTGGATTTCCTACTAATGTCGGAGTCACCTAGTGCAG”: the binding signal was 8110 fluorescence intensity (a.u.).

Turning to “CCCAGCCACAGCGACGAACCACCGCCCCGGAGGCCGCCGGCGGAGTCACCTAGTGCAG”, the binding signal is 8460 fluorescence intensity (a.u.).

Turning to “CGTCGAGTTGGGTGGGAAGAGGAAGGCGTATCATCTCGATCGGAGTCACCTAGTGCAG”, the binding signal was 8520 fluorescence intensity (a.u.).

For “AGAGAGAGGGGAGGGCAGCAGAAGGGGAGCGGCGAAGCCCCGGAGTCACCTAGTGCAG”, the binding signal was 8990 fluorescence intensity (a.u.).

For “GCGCCTCGTCGAACTCCCCACCGTGCTCTGCTGCCGCCCTCGGAGTCACCTAGTGCAG”, the binding signal is 8440 fluorescence intensity (a.u.).

On to “CGCTGACTCCATATCGCCTTGTTGGTTATGACCAAATATTCGGAGTCACCTAGTGCAG”, for which the binding signal is 8060 fluorescence intensity (a.u.).

As for “TAATATGTATAAATTTGGTCTCTACTTTATCCTTCAATTTCGGAGTCACCTAGTGCAG”, the binding signal is 9500 fluorescence intensity (a.u.).

“ACTTCAGTCATTTTCCATCACATCAACATGTCATATACATCGGAGTCACCTAGTGCAG”: the binding signal is 8420 fluorescence intensity (a.u.).

“CACACGAGTGACTCTCACCATCCATTTCTCAAGCTCTCGACGGAGTCACCTAGTGCAG”: the binding signal was 10100 fluorescence intensity (a.u.).

For the sequence “AGTCTTGGACGGTGATCTCCATTGCTTTTGTGATTTTGCTCGGAGTCACCTAGTGCAG”, the binding signal was 9250 fluorescence intensity (a.u.).

Take “TTGTTAGAAAATCCGTCTCTTGTACCCATCTCGTCGAAACCGGAGTCACCTAGTGCAG”: the binding signal was 9070 fluorescence intensity (a.u.).

As to “ATTTTTACGTGCGATTAAAATTAATTTTTCACATATAGCTCGGAGTCACCTAGTGCAG”, the binding signal is 8520 fluorescence intensity (a.u.).

Consider “TCCCGCGCTTCGCCGGCGAACTCTTCGTCCAGTTCATCATCGGAGTCACCTAGTGCAG”, for which the binding signal is 10500 fluorescence intensity (a.u.).

Turning to “GTCTCTCTTGTCCTCCGTTGGATGTCTCCCTGAGGGATCGCGGAGTCACCTAGTGCAG”, the binding signal was 8820 fluorescence intensity (a.u.).

As to “CACCCGTATGAACACGCTTGGACACCCTTATGATTACTTTCGGAGTCACCTAGTGCAG”, the binding signal was 8020 fluorescence intensity (a.u.).

Take “CAGTTGACCGCCACGTAGAACCTGTTCCTCCAGCTCACCACGGAGTCACCTAGTGCAG”: the binding signal is 8130 fluorescence intensity (a.u.).

Regarding “CACCCATTTTCTCCACTAAAATACGCGCCGCTTATTAAATCGGAGTCACCTAGTGCAG”, the binding signal is 8500 fluorescence intensity (a.u.).

As to “TCCCTCGCCATCATCCATGTTCATCTGCACACCTGGATCCCGGAGTCACCTAGTGCAG”, the binding signal is 9670 fluorescence intensity (a.u.).

On to “TCGGTATTTTCTGTTCTGATTCATGTGCTTCTTCATCTTCCGGAGTCACCTAGTGCAG”, for which the binding signal was 13300 fluorescence intensity (a.u.).

For “CGCTCATCTATTTCTTTGTAGTACAACGCAGGCGCTCACACGGAGTCACCTAGTGCAG”, the binding signal was 8090 fluorescence intensity (a.u.).

In the case of “AGTCCTTACCTCGGCGTCGACTCGTACGTTTAAATCTAGCCGGAGTCACCTAGTGCAG”, the binding signal was 9320 fluorescence intensity (a.u.).

For the sequence “CACTAGTGCACCATCTTATATTCTTCCTACATATTCATTCCGGAGTCACCTAGTGCAG”, the binding signal is 12500 fluorescence intensity (a.u.).

For “GCGCCCTTAAAAAACACTCATCCAATTCACACCACACTTTCGGAGTCACCTAGTGCAG”, the binding signal was 9400 fluorescence intensity (a.u.).

Turning to “ACTGGAGACGGGTTCTGCACCTGCCGCTACCAACGTCGCTCGGAGTCACCTAGTGCAG”, the binding signal was 8880 fluorescence intensity (a.u.).

As for “GTCGGCTGCACTGATCGATTCCATCACTCTCTCTCTCTCGCGGAGTCACCTAGTGCAG”, the binding signal was 10300 fluorescence intensity (a.u.).

Consider “ATCTCATTATCTATGGGCCTTTAGTTTTCCTTTCCGATCTCGGAGTCACCTAGTGCAG”, for which the binding signal was 8100 fluorescence intensity (a.u.).

As for “CATCGACGGATCCTCATCCTAATCCGTTCCCTTTGTCCTGCGGAGTCACCTAGTGCAG”, the binding signal was 8720 fluorescence intensity (a.u.).

“CTCTTCGCCGCCCGCGGCGCGCCTTCCAGAACCTTCCAGACGGAGTCACCTAGTGCAG”: the binding signal was 8930 fluorescence intensity (a.u.).

Take “CTAAAATTTGCTGCTCTCTCCAGTTCCTTCACTTCTTCAACGGAGTCACCTAGTGCAG”: the binding signal was 8190 fluorescence intensity (a.u.).

Consider “CTTGTTTTTTTTTACGAGGTTTAGTTCATTTCTCGTACGGCGGAGTCACCTAGTGCAG”, for which the binding signal was 8960 fluorescence intensity (a.u.).

“GCCCGTCTTCGTCCAGTTCCTGATCAGGTATGGTCCTTCTCGGAGTCACCTAGTGCAG”: the binding signal was 8060 fluorescence intensity (a.u.).

Take “GAACCGACCTTCATGAACCGACGTCCACCGCCTATAAATACGGAGTCACCTAGTGCAG”: the binding signal is 11000 fluorescence intensity (a.u.).

As for “TTCTCTTTTTCCTTTTCTCCCATCGAAACCTTTTTTTTTTCGGAGTCACCTAGTGCAG”, the binding signal is 9060 fluorescence intensity (a.u.).

Consider “AATATTTCCCTTTCCAATGTTCAGTCAGCCCATCAGACCGCGGAGTCACCTAGTGCAG”, for which the binding signal is 8110 fluorescence intensity (a.u.).

In the case of “CTATATATTTACCCACTGTATACCTCTGTCATGAAAGCATCGGAGTCACCTAGTGCAG”, the binding signal is 11500 fluorescence intensity (a.u.).

Consider “TTGTTCATGATTCCCACCAATCGATTAATTTTTCGTCCGGCGGAGTCACCTAGTGCAG”, for which the binding signal was 9950 fluorescence intensity (a.u.).
